From paper PMC8465894

T1: hPIGK-StrepII (human) (UniProt Q92643)
T1 sequence: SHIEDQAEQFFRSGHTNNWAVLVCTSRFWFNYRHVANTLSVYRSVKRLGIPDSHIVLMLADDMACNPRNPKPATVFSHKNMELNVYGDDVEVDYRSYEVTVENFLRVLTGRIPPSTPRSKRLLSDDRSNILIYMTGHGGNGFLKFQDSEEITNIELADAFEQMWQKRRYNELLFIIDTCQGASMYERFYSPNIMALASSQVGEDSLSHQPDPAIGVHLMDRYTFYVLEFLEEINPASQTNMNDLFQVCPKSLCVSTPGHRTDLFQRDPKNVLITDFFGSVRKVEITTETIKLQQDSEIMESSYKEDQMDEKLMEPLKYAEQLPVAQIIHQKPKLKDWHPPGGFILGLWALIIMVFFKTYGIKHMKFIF

T2: hPIGK-StrepII-GST (human) (UniProt Q92643)
T2 sequence: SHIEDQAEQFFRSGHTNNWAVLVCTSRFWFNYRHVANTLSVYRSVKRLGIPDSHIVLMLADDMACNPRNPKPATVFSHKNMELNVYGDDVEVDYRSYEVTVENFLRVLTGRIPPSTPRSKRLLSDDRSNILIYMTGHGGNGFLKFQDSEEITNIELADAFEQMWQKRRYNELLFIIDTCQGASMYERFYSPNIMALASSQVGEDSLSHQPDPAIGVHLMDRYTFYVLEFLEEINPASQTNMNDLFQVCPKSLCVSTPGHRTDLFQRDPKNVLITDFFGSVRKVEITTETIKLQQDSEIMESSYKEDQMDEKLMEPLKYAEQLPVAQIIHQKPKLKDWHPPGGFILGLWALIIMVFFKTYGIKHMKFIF


Columns and labels:
hPIGK-StrepII (human) = target: T1, hPIGK-StrepII (human); assay: affinity purification with mass spectrometry; membranes of K562K-hPIGK-StrepII cells solubilised in 2% DDM-0.4% CHS, bound to StrepTactin Sepharose in 50 mM Tris pH 7.5, 150 mM NaCl, 0.06% GDN, eluted with 2.5 mM desthiobiotin, 4 °C; silver staining, bands cut and analysed by mass spectrometry
[1] = target: T2, hPIGK-StrepII-GST (human); assay: affinity purification with mass spectrometry; single-step purification of the GPI-TA complex on StrepTactin Sepharose by tagged PIGK, without reducing reagent, in DDM, DDM-CHS or digitonin; silver staining, bands confirmed by mass spectrometry

Row | Binder | binding (hPIGK-StrepII (human)) | binding [1]
1 | PIGS (protein, UniProt Q96S52 1-555) MAAAGAAATHLEVARGKRAALFFAAVAIVLGLPLWWKTTETYRASLPYSQISGLNALQLRLMVPVTVVFTRESVPLDDQEKLPFTVVHEREIPLKYKMKIKCRFQKAYRRALDHEEEALSSGSVQEAEAMLDEPQEQAEGSLTVYVISEHSSLLPQDMMSYIGPKRTAVVRGIMHREAFNIIGRRIVQVAQAMSLTEDVLAAALADHLPEDKWSAEKRRPLKSSLGYEITFSLLNPDPKSHDVYWDIEGAVRRYVQPFLNALGAAGNFSVDSQILYYAMLGVNPRFDSASSSYYLDMHSLPHVINPVESRLGSSAASLYPVLNFLLYVPELAHSPLYIQDKDGAPVATNAFHSPRWGGIMVYNVDSKTYNASVLPVRVEVDMVRVMEVFLAQLRLLFGIAQPQLPPKCLLSGPTSEGLMTWELDRLLWARSVENLATATTTLTSLAQLLGKISNIVIKDDVASEVYKAVAAVQKSAEELASGHLASAFVASQEAVTSSELAFFDPSLLHLLYFPDDQKFAIYIPLFLPMAVPILLSLVKIFLETRKSWRKPEKTD | binds | binds
2 | PIGU (protein, UniProt Q9H490 1-435) MAAPLVLVLVVAVTVRAALFRSSLAEFISERVEVVSPLSSWKRVVEGLSLLDLGVSPYSGAVFHETPLIIYLFHFLIDYAELVFMITDALTAIALYFAIQDFNKVVFKKQKLLLELDQYAPDVAELIRTPMEMRYIPLKVALFYLLNPYTILSCVAKSTCAINNTLIAFFILTTIKGSAFLSAIFLALATYQSLYPLTLFVPGLLYLLQRQYIPVKMKSKAFWIFSWEYAMMYVGSLVVIICLSFFLLSSWDFIPAVYGFILSVPDLTPNIGLFWYFFAEMFEHFSLFFVCVFQINVFFYTIPLAIKLKEHPIFFMFIQIAVIAIFKSYPTVGDVALYMAFFPVWNHLYRFLRNIFVLTCIIIVCSLLFPVLWHLWIYAGSANSNFFYAITLTFNVGQILLISDYFYAFLRREYYLTHGLYLTAKDGTEAMLVLK | binds | binds
3 | PIGT (protein, UniProt Q969N2 22-578) LAEPPRDSLREELVITPLPSGDVAATFQFRTRWDSELQREGVSHYRLFPKALGQLISKYSLRELHLSFTQGFWRTRYWGPPFLQAPSGAELWVWFQDTVTDVDKSWKELSNVLSGIFCASLNFIDSTNTVTPTASFKPLGLANDTDHYFLRYAVLPREVVCTENLTPWKKLLPCSSKAGLSVLLKADRLFHTSYHSQAVHIRPVCRNARCTSISWELRQTLSVVFDAFITGQGKKDWSLFRMFSRTLTEPCPLASESRVYVDITTYNQDNETLEVHPPPTTTYQDVILGTRKTYAIYDLLDTAMINNSRNLNIQLKWKRPPENEAPPVPFLHAQRYVSGYGLQKGELSTLLYNTHPYRAFPVLLLDTVPWYLRLYVHTLTITSKGKENKPSYIHYQPAQDRLQPHLLEMLIQLPANSVTKVSIQFERALLKWTEYTPDPNHGFYVSPSVLSALVPSMVAAKPVDWEESPLFNSLFPVSDGSNYFVRLYTEPLLVNLPTPDFSMPYNVICLTCTVVAVCYGSFYNLLTRTFHIEEPRTGGLAKRLANLIRRARGVPPL | binds | binds
4 | GPAA1 (protein, UniProt O43292 1-621) MGLLSDPVRRRALARLVLRLNAPLCVLSYVAGIAWFLALVFPPLTQRTYMSENAMGSTMVEEQFAGGDRARAFARDFAAHRKKSGALPVAWLERTMRSVGLEVYTQSFSRKLPFPDETHERYMVSGTNVYGILRAPRAASTESLVLTVPCGSDSTNSQAVGLLLALAAHFRGQIYWAKDIVFLVTEHDLLGTEAWLEAYHDVNVTGMQSSPLQGRAGAIQAAVALELSSDVVTSLDVAVEGLNGQLPNLDLLNLFQTFCQKGGLLCTLQGKLQPEDWTSLDGPLQGLQTLLLMVLRQASGRPHGSHGLFLRYRVEALTLRGINSFRQYKYDLVAVGKALEGMFRKLNHLLERLHQSFFLYLLPGLSRFVSIGLYMPAVGFLLLVLGLKALELWMQLHEAGMGLEEPGGAPGPSVPLPPSQGVGLASLVAPLLISQAMGLALYVLPVLGQHVATQHFPVAEAEAVVLTLLAIYAAGLALPHNTHRVVSTQAPDRGWMALKLVALIYLALQLGCIALTNFSLGFLLATTMVPTAALAKPHGPRTLYAALLVLTSPAATLLGSLFLWRELQEAPLSLAEGWQLFLAALAQGVLEHHTYGALLFPLLSLGLYPCWLLFWNVLFWK | binds | binds

These are yes or no findings as the source states them, for the method shown. Binding seen in cells or lysates may run through a third protein. These calls come from enrichment with a bait or labelling near it, and not all partners need be listed. For some assays here: Sequences can lack the tags named with a protein.
